The test is described as follows: qHTS Assay to Find Inhibitors of Chronic Active B-Cell Receptor Signaling. The note with it: ABC-DLBCL IkBa-CBG/CBR reporter, luminescence ratio (green luciferase fused to IkBa over red control in TMD8 lymphoma cells), 4 h. The essentials: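 Cell line TMD8 (human ABC DLBCL), stably expressing tet-inducible CBG68-IkBa fusion and CBR; IMDM/0.5% FBS; cpd up to 46 uM; dox induction, 4 h, 37C/5% CO2; dual luminescence; green/red ratio; MG132 control.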
(qHTS replaces the single test concentration by a dilution series.)

[1] abbreviates: measured here: CBR red luminescence, cell number.
Where [2] appears, read: measured here: IkBa-CBG green luminescence.

Some of the results follow. These are further read-outs of the screen, such as a control signal, another cell line or another target. No call is given for them. The list favours compounds with an active or inconclusive main result. Potencies come from curve fits of mixed quality, noted in brackets.

Turning to `C/C(Cl)=C\Cn1c(O)c(N=NC(N)=S)c2cc(Br)ccc21`, the AC50 (commonly the concentration at which the activity in the assay is half-maximal) runs as follows: under setting [1], 12.6 µM [rising, partial curve]; under setting [2], 7.08 µM [falling, partial curve]. For the compound `Cc1ccc(C)c(NC(=O)C2(C)CC3c4ccccc4C2c2ccccc23)c1` (stereo not drawn), the AC50 under setting [1] was 6.31 µM [rising, full curve, poor fit]. The same measure, in the same setting: the same measure for `Cc1c(Nc2nc3ccccc3nc2NS(=O)(=O)c2cccs2)c(=O)n(-c2ccccc2)n1C`: 29.1 µM [rising, single point].

In the case of `Cc1cc(C)c2c(c1)/C(=N/NS(=O)(=O)c1ccc(Br)cc1)CCC2`, under setting [1], the AC50 is 8.2 µM [falling, partial curve].

Turning to `COc1ccc(NC(=O)CSc2nccc(C)n2)cc1`, the AC50 under setting [1] is 23.1 µM [rising, partial curve, poor fit]. For the compound `O=C(CSc1n[nH]c(=O)[nH]c1=O)c1ccccc1[N+](=O)[O-]`, the AC50 under setting [1] was 10 µM [falling, partial curve, poor fit]. `COc1ccc(/C=N/NC(=O)c2ccc3c(c2)NC(=O)C(C)(C)O3)cc1OC`: the AC50 runs as follows: under setting [1], 11.2 µM [rising, partial curve, poor fit]; under setting [2], 11.2 µM [falling, partial curve]. On to `CCSc1nsc(NC(=O)Nc2cccc(F)c2)n1`, for which the AC50 under setting [1] was 0.398 µM [falling, full curve]. With `Cc1cc(C)c2[nH]c(=O)c(CN(CC3CCCO3)C(=O)c3cnccn3)cc2c1` (stereo not drawn), the AC50 under setting [1] was 35.5 µM [rising, single point].

For the compound `CCS(=O)(=O)c1nc(S(=O)(=O)c2ccc(Cl)cc2)c(NCCOC)s1`, the AC50 under setting [1] was 5.62 µM [falling, single point].

For the compound `COc1ccc(OCc2nc(N)nc(Nc3ccccc3)n2)cc1`, the AC50 under setting [1] was 23.1 µM [rising, partial curve, poor fit]. With `CC(C)CNC(=O)CCc1c[nH]c2ccccc12`, the AC50 under setting [1] is 35.5 µM [falling, single point]. For the compound `COc1cc(OC)cc(C(=O)NNC(=S)NC2CC2)c1`, the AC50 under setting [1] was 35.5 µM [falling, single point]. Same read-out and setting: the same measure for `COc1ccc(C2NC(=O)NC(C)=C2C(=O)OC2CCCC(C)C2)cc1` (stereo not drawn): 1 µM [rising, partial curve, poor fit]; for `COc1ccc(C(=O)OCC(=O)N2C(C)CCCC2C)cc1[N+](=O)[O-]` (stereo not drawn): 3.98 µM [rising, full curve].

As for `O=C(CCSCCc1ccccn1)Nc1ccccn1`, the AC50 under setting [1] was 14.1 µM [falling, partial curve, poor fit]. As for `COc1cccc2cc(C(=O)OCc3ccccc3)c(=O)oc12`, the AC50 under setting [1] is 12.6 µM [falling, partial curve, poor fit].

Take `COc1ccc(-c2nn(-c3ccccc3)cc2CNC(=O)c2cccc([N+](=O)[O-])c2)cc1`: the AC50 under setting [1] is 14.6 µM [rising, single point]. Still for that read-out and setting: the same measure for `COc1ccc([N+](=O)[O-])cc1C1NN=C(c2ccccc2O)S1` (stereo not drawn): 25.1 µM [falling, single point]. The same measure, in the same setting: the same measure for `O=C(Cc1cc(=O)[nH]c(=O)[nH]1)NCc1ccc(Cl)cc1`: 29.1 µM [rising, partial curve, poor fit]; for `CC(=O)Nc1ccc(NC(=O)C(C)OC(=O)CCCN=C2NS(=O)(=O)c3ccccc32)cc1` (stereo not drawn): 25.9 µM [falling, single point]; for `COC(=O)c1cc(-c2ccc(Br)cc2)n[nH]1`: 3.66 µM [rising, partial curve, poor fit].

On to `c1ccc(-n2cc(CN3CCCC(CN4CCCC4)C3)c(-c3ccc4c(c3)OCO4)n2)cc1` (stereo not drawn), for which the AC50 under setting [1] is 35.5 µM [falling, single point]. On to `CCOc1ccccc1Nc1cc(C)c2cccc(C)c2n1`, for which, under setting [1], the AC50 is 25.1 µM [rising, single point].

Take `COc1ccc(Nc2oc(-c3cccs3)nc2C#N)cc1`: the AC50 under setting [1] was 35.5 µM [falling, single point]. In the case of `S=c1[nH]c2cc3c(cc2[nH]1)OCCO3`, under setting [1], the AC50 was 6.31 µM [falling, single point]. `O=C(N/N=C/c1ccc[nH]1)c1cccc(Br)c1`: the AC50 under setting [1] was 29.1 µM [falling, single point]. As for `CN(C)S(=O)(=O)c1ccc(C(=O)OCc2nnc(-c3ccccc3)o2)cc1`, the AC50 under setting [1] was 0.562 µM [rising, full curve, poor fit]. Same read-out and setting: next, `O=c1oc2ccc(Cl)cc2cc1-c1nnc(Nc2cccc(C(F)(F)F)c2)s1`: 0.103 µM [rising, full curve, poor fit]; `COc1ccc(OC)c(CN2CCN(CC(=O)Nc3ccccc3C(=O)NC3CC3)CC2)c1`: 0.651 µM [rising, single point]; `c1ccc(-c2ncc(-c3ccn[nH]3)s2)cc1`: 11.2 µM [falling, partial curve]. Turning to `COc1ccc(Cn2c(=N)c(C(=O)NCC3CCCO3)cc3c(=O)n4ccccc4nc32)cc1` (stereo not drawn), under setting [1], the AC50 was 35.5 µM [falling, single point]. `c1ccc(-c2csc(-c3ccc(-c4csnn4)cc3)n2)cc1`: the AC50 under setting [1] is 0.794 µM [rising, full curve, poor fit]. `CC1=NN(C(=O)CSCc2ccccc2)C(O)(c2ccccc2)C1` (stereo not drawn): under setting [1], the AC50 was 35.5 µM [falling, single point]. Turning to `CCOc1cc(/C=N\NC(=O)c2ccc(NC(=O)C(C)(C)C)cc2)ccc1OC(=O)c1ccc(OC)cc1`, the AC50 under setting [1] was 0.116 µM [falling, full curve, poor fit].

Take `Cc1c(C#N)sc2nc(-c3ccccc3)nc(N3CCCC3)c12`: the AC50 under setting [1] is 32.6 µM [falling, single point]. Take `COc1ccccc1C(=O)N(CCN(C)C)c1nc2cc(C)cc(C)c2s1`: the AC50 under setting [1] is 35.5 µM [falling, single point]. Consider `COCCN(C(=O)C(C)C)c1nnc(-c2ccc(C(C)(C)C)cc2)s1`, for which the AC50 under setting [1] is 31.6 µM [rising, single point]. Same read-out and setting: the same measure for `CC(C)(C)C(=O)N/C(N)=N/c1nc2ccccc2o1`: 11.2 µM [falling, partial curve, poor fit]; for `N/C(=N\OC(=O)c1ccc(Cl)cc1)c1ccn[nH]1`: 14.1 µM [falling, single point]; for `CC(C)n1cnc2c(N(C)c3ccccc3)nc(N(CCN(C)C)Cc3ccccc3)nc21`: 20 µM [falling, partial curve, poor fit].
